Reference: PubChem BioAssay AID652272 (Drosophila RNAi Screening Center, 2013)
Assay: 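Finding fly genes that regulate Hedgehog signal transduction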 (primary screen). Cell system: Drosophila clone 8 (Cl8) cells. Reagents: long dsRNA against Drosophila genes. Read-out: 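Plate reader light from a firefly reporter under a ptc promoter fragment that responds to Hedgehog, with Renilla light as transfection reference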. Direction: firefly Hh reporter signal: higher = more ptc reporter light; Renilla reference signal: higher = more Renilla control light. Hit rule: 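Hit when the z-score averaged over two replicates is under -2 or over +3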. Calls: active = hit: reporter lowered or raised; inactive = not a hit.
In all, the deposit lists about 21,000 reagents; this is an unselected part of those with a known target gene and a result. In the full data, 503 (2.4%) were called active. 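Raw plate light values, not normalised; calls rest on replicate z-scores that were not deposited; hits include reporter decreases as well as increases.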 Unmarked entries are inactive. The record does not give: the amount of reagent, the time to read-out.

For abo [DRSC02926], how do the results read?
firefly Hh reporter signal, replicate 1: 1.04e5; firefly Hh reporter signal, replicate 2: 44731; Renilla reference signal, replicate 1: 2944; Renilla reference signal, replicate 2: 4724

With Gmer [DRSC04376], how do the results read?
firefly Hh reporter signal, replicate 1: 1.08e5; firefly Hh reporter signal, replicate 2: 58338; Renilla reference signal, replicate 1: 4256; Renilla reference signal, replicate 2: 2403

With jing [DRSC04923], how do the results read?
firefly Hh reporter signal, replicate 1: 96708; firefly Hh reporter signal, replicate 2: 75419; Renilla reference signal, replicate 1: 2656; Renilla reference signal, replicate 2: 7349

For jing [DRSC04927], how do the results read?
firefly Hh reporter signal, replicate 1: 1.29e5; firefly Hh reporter signal, replicate 2: 2.65e5; Renilla reference signal, replicate 1: 3141; Renilla reference signal, replicate 2: 11664

With jing [DRSC05000], what was measured?
firefly Hh reporter signal, replicate 1: 1.21e5; firefly Hh reporter signal, replicate 2: 57795; Renilla reference signal, replicate 1: 4274; Renilla reference signal, replicate 2: 1862

What did the screen give for in [DRSC11888]?
firefly Hh reporter signal, replicate 1: 92467; firefly Hh reporter signal, replicate 2: 92981; Renilla reference signal, replicate 1: 3399; Renilla reference signal, replicate 2: 2524

What is on record for Unc-115a [DRSC12749]?
firefly Hh reporter signal, replicate 1: 2.13e5; Renilla reference signal, replicate 1: 4861

For CG1888 [DRSC06797], what does the deposit list?
firefly Hh reporter signal, replicate 1: 1.09e5; firefly Hh reporter signal, replicate 2: 53700; Renilla reference signal, replicate 1: 2534; Renilla reference signal, replicate 2: 4880

What did the screen give for Pvf3 [DRSC02284]?
firefly Hh reporter signal, replicate 1: 1.65e5; firefly Hh reporter signal, replicate 2: 66653; Renilla reference signal, replicate 1: 4011; Renilla reference signal, replicate 2: 6736

With Pvf3 [DRSC02285], what was measured?
firefly Hh reporter signal, replicate 1: 1.17e5; firefly Hh reporter signal, replicate 2: 70833; Renilla reference signal, replicate 1: 3451; Renilla reference signal, replicate 2: 7210

With Pvf3 [DRSC02286], how do the results read?
firefly Hh reporter signal, replicate 1: 1.01e5; firefly Hh reporter signal, replicate 2: 56716; Renilla reference signal, replicate 1: 2282; Renilla reference signal, replicate 2: 4788

For Pvf3 [DRSC02751], what does the deposit list?
firefly Hh reporter signal, replicate 1: 1.19e5; firefly Hh reporter signal, replicate 2: 71959; Renilla reference signal, replicate 1: 2717; Renilla reference signal, replicate 2: 6433

For l(2)k01209 [DRSC06889], what was measured?
firefly Hh reporter signal, replicate 1: 73276; firefly Hh reporter signal, replicate 2: 51291; Renilla reference signal, replicate 1: 2064; Renilla reference signal, replicate 2: 4256

For CBP [DRSC17746], what was measured?
firefly Hh reporter signal, replicate 1: 99143; firefly Hh reporter signal, replicate 2: 93641; Renilla reference signal, replicate 1: 2133; Renilla reference signal, replicate 2: 2108

A run of entries of the results above, as a working copy:
Pvf3 [DRSC02284] | firefly Hh reporter signal, replicate 1 = 1.65e5; firefly Hh reporter signal, replicate 2 = 66653; Renilla reference signal, replicate 1 = 4011; Renilla reference signal, replicate 2 = 6736
Pvf3 [DRSC02285] | firefly Hh reporter signal, replicate 1 = 1.17e5; firefly Hh reporter signal, replicate 2 = 70833; Renilla reference signal, replicate 1 = 3451; Renilla reference signal, replicate 2 = 7210
